Experimental data reported in article PMC3514159.
No constants are given. Whether binding was seen depends on the method and setting. In cells and extracts the contact can be indirect. Some binding calls cover weakened binding; strength is not graded here. For part of these data: Where a sequence is shown, tags or fusion partners need not be part of it.

The chains behind the UniProt entries cited, without tags or fusion partners.
UniProt Q9UKS7: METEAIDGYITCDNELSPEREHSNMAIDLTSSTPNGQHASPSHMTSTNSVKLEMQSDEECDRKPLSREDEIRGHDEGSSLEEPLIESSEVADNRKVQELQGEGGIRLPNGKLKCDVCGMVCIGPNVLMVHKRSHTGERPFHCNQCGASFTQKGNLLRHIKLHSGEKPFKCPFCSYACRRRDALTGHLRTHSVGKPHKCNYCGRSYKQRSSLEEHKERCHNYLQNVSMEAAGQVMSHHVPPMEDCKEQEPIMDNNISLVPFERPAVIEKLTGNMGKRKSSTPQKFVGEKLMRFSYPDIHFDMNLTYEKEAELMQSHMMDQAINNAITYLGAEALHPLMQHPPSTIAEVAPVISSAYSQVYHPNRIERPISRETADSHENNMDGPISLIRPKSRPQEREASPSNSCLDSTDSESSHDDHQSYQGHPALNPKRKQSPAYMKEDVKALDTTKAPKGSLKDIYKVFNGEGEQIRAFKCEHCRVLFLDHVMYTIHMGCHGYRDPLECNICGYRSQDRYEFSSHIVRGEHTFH
UniProt P31249: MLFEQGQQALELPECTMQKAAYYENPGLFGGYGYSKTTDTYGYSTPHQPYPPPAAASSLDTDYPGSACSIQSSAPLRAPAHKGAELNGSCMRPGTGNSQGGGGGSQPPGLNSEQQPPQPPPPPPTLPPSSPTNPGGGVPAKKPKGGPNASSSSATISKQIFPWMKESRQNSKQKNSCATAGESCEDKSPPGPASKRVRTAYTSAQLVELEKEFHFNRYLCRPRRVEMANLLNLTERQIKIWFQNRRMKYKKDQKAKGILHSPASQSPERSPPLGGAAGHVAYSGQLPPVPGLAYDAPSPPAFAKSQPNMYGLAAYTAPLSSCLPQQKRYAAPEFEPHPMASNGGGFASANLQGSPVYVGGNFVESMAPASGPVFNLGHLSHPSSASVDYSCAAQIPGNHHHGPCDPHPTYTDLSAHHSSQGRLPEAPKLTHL
UniProt P09022: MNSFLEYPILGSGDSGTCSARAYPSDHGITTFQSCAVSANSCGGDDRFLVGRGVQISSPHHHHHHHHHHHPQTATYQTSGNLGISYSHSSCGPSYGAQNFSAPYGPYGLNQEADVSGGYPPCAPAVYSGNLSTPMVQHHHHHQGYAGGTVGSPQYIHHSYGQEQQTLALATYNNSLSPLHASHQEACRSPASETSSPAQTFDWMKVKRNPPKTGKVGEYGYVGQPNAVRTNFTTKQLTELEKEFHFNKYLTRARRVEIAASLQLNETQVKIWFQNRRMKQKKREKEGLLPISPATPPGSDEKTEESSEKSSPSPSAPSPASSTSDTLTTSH

Columns and labels:
Assay in all cases: pull-down; GST-hORF and FLAG-Hoxa1 co-expressed in COS7 or HEK293T; cleared lysate (Tris-HCl pH7.5 20mM, NaCl 120mM, EDTA 0.5mM, NP40 0.5%, glycerol 10%) overnight on glutathione-agarose beads, 3 washes; anti-FLAG western blot
[1] = biological target: IKAROS family zinc finger 2 (human) (UniProt Q9UKS7)
[2] = biological target: T1, zinc finger and BTB domain containing 16 (human) (UniProt Q05516)
T1 sequence: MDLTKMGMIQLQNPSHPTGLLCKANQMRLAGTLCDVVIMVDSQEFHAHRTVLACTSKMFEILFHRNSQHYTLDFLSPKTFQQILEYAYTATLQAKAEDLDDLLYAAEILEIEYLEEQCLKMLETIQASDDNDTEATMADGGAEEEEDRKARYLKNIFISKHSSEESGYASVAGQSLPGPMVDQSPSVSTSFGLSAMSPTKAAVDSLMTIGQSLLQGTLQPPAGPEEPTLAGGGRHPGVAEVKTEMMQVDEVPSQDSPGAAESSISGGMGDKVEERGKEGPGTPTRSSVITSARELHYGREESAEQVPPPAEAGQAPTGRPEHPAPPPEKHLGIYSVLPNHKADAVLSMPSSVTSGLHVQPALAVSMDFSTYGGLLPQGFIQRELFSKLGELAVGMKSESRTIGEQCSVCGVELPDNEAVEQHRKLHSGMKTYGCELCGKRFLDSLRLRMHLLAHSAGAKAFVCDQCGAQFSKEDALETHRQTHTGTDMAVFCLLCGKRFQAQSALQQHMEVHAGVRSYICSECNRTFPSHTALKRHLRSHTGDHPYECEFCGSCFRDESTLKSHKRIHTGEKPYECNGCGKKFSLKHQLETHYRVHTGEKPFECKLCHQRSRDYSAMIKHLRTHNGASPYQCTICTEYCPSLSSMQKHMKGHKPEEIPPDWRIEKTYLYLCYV

[3] = biological target: T2, keratin associated protein 26-1 (human) (UniProt Q6PEX3)
T2 sequence: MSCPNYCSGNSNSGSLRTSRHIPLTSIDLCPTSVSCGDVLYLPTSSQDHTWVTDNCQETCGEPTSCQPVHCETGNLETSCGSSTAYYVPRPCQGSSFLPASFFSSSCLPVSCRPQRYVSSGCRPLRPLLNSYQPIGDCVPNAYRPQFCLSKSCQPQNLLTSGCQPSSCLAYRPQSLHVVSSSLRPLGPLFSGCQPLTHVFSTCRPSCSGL

[4] = biological target: RNA binding protein with multiple splicing (human) (UniProt Q93062)
[5] = biological target: T3, O-linked N-acetylglucosamine (GlcNAc) transferase (human) (UniProt O15294)
T3 sequence: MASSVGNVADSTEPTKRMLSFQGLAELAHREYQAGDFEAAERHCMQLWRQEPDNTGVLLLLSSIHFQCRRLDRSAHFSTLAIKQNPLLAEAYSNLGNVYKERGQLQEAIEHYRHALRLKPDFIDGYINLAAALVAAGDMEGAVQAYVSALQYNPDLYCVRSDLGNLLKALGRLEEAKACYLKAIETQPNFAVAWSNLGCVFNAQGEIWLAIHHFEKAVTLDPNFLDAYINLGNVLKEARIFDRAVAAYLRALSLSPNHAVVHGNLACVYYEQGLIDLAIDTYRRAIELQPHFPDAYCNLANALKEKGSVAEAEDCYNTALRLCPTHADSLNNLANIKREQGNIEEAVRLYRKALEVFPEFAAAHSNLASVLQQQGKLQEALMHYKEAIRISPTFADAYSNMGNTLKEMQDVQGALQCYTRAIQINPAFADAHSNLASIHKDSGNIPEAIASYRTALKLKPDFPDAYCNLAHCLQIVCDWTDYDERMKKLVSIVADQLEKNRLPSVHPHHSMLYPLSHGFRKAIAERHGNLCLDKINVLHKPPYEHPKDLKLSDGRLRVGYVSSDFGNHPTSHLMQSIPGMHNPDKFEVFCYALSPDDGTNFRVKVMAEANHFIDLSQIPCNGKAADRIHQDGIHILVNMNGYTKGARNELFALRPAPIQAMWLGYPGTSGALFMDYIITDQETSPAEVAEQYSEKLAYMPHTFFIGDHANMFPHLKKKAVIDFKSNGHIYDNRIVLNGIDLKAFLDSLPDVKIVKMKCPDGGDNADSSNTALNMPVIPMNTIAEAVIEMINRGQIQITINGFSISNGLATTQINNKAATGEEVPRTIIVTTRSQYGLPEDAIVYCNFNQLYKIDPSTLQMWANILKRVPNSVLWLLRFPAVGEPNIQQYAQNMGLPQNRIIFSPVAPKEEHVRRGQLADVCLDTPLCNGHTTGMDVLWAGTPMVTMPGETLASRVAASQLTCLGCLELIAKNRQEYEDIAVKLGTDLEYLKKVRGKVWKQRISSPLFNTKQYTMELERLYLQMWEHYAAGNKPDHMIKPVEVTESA

[6] = biological target: homeobox D3 (human) (UniProt P31249)

Measured: binding

FLAG-Hoxa1 (from UniProt P09022 1-331)
binds: all assays above
